The values below come from PMC7819943, “Rice protein-binding microarrays: a tool to detect cis-acting elements near promoter regions in rice”.

The other results are listed elsewhere or left out.

In the experiment the target is T1, OsSMF1 (Oryza sativa, UniProt Q6ZLB0 1-436).
T1 sequence: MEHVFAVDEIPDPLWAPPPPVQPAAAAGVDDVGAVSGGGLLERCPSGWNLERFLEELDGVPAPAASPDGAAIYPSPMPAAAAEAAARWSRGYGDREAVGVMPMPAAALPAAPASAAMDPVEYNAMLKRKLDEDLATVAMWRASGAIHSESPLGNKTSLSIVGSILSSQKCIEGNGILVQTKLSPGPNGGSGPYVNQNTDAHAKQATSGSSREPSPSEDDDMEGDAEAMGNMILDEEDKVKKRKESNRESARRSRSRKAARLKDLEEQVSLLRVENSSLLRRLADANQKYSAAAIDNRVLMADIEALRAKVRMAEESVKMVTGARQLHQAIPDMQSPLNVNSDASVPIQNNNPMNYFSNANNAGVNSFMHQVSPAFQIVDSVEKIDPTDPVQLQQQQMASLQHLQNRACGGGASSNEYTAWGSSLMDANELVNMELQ
Kind of experiment: protein-binding microarray (RPBM); PBS, 2% BSA, 51.3 ng/ul salmon testes DNA, 50 uM zinc acetate, 200 nM TF, 25 C, 1 h; high values mean tight binding. To be noted: protein: recombinant; tags: N-terminal polyhistidine and DsRed monomer fusion (pET32a); chain copies: 2; label: CyDye5-dUTP incorporated in the synthesized complementary strand; 3' TTTTT single-stranded linker to array surface; dsDNA, one strand shown. In outline: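 For the binding signal, per-feature fluorescence intensity was read in arbitrary units on an Axon 4000B scanner. Before scanning, a 2% BSA-blocked custom Agilent array made double-stranded with Cy5-dUTP was washed after 1 h at 25 °C with 200 nM protein and 50 µM zinc acetate. The proteins were Ni–NTA-purified transcription factors with N-terminal polyhistidine and DsRed fusions, expressed in E. coli BL21-CodonPlus.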
Regarding “GATGGGGAGAGCTCTCGGCGTGTCCACGTAGGATAGGAACCGGAGTCACCTAGTGCAG”, the binding signal was 6770 fluorescence intensity (a.u.).
The figure for “CGAGTCCAGCACAGTCGACTGCCACCACCACCGCTGCCGCCGGAGTCACCTAGTGCAG” is 4160 fluorescence intensity (a.u.); for “CAAGAGTCCTTTACCCTGCGCCACCTCCTGGCTCACCGGGCGGAGTCACCTAGTGCAG” it is 3270 fluorescence intensity (a.u.).
“CAGGAGGCTTGCAGAGATGTCCCTCTGCTGCTTCAGCAGCCGGAGTCACCTAGTGCAG”: the binding signal was 15400 fluorescence intensity (a.u.).
The result for “AGCCCACGTATGGAAGCCCGAACTTACAATAATCAAAAGCCGGAGTCACCTAGTGCAG” reads 24500 fluorescence intensity (a.u.).
Take “GAAAAGTAAACTGGGCCCAAATGCCAAGTCAGCGAAGCTCCGGAGTCACCTAGTGCAG”: the binding signal was 4220 fluorescence intensity (a.u.).
The result for “TAAACATGAGGCAGTATAGATATAATCTTCCGTGTGTGGTCGGAGTCACCTAGTGCAG” reads 3150 fluorescence intensity (a.u.); that for “ATCATATCCCAAAGCATGGTAGCCACTACTAATATTTGTTCGGAGTCACCTAGTGCAG”, 3390 fluorescence intensity (a.u.); that for “CAGAACACGGTAACGATTCCGATTCCCTCACGTTAATTGTCGGAGTCACCTAGTGCAG”, 3570 fluorescence intensity (a.u.).
The result for “TGGTGATGTGGATGTGATGTTTACATTTGCTGCTGCCTTTCGGAGTCACCTAGTGCAG” reads 9060 fluorescence intensity (a.u.).
The figure for “GGAAACCTATCTATCGTGTTCTCGTATCCACTCGTGTCCACGGAGTCACCTAGTGCAG” is 3680 fluorescence intensity (a.u.).
“CGAGGCTAATCGATAGAACTGATATACTATGATAGTATATCGGAGTCACCTAGTGCAG”: the binding signal is 3210 fluorescence intensity (a.u.).
The result for “GCCCAACATTTGCTCTTCGCAGACAGAGAGATAGCTGACGCGGAGTCACCTAGTGCAG” reads 26000 fluorescence intensity (a.u.).
The figure for “GCTCTCTTGGCCTTAGGTTATCATGGTACGTGTTTCCCTACGGAGTCACCTAGTGCAG” is 3280 fluorescence intensity (a.u.).
For “CTTTTCCTCTCATCTCGTCATCTCCACGCGCGGCATCTGACGGAGTCACCTAGTGCAG”, the binding signal is 6180 fluorescence intensity (a.u.).
The figure for “GTCGATGATTCAGAGGAGCTTCCTATTTACCCCTACGTGGCGGAGTCACCTAGTGCAG” is 6240 fluorescence intensity (a.u.); for “GGGATCGAGGGGATCCGATCGATCGATCTGTAGAGGAGGCCGGAGTCACCTAGTGCAG” it is 3250 fluorescence intensity (a.u.).
The result for “AGCTGCGTACAAGGTTACAGTCAGACTGAGTCTTGCTATCCGGAGTCACCTAGTGCAG” reads 3930 fluorescence intensity (a.u.); that for “TACCTTGTTTTGCCTATGTACGCGCGGACGTGTGGGCGAGCGGAGTCACCTAGTGCAG”, 3820 fluorescence intensity (a.u.); that for “TAATATTGTAGCTGTTGGATAAGGCATGTTTGGTTGAGTACGGAGTCACCTAGTGCAG”, 3300 fluorescence intensity (a.u.).
As for “TGAAGAAGAAAGACAAACCTGATTCAGCTCAGCCAACTACCGGAGTCACCTAGTGCAG”, the binding signal is 26500 fluorescence intensity (a.u.).
The result for “ACGGTGAAAACATTGTGTGGGTGTGGCATCTTATTTCTCCCGGAGTCACCTAGTGCAG” reads 3210 fluorescence intensity (a.u.); that for “ATGTCATTTTAACCTTTAATTTGGCGTGTTGACAATTATACGGAGTCACCTAGTGCAG”, 3650 fluorescence intensity (a.u.).
The result for “TAGTTCTGTCAGTACCAGTTCCACGTCAAAGAAACCACGGCGGAGTCACCTAGTGCAG” reads 8200 fluorescence intensity (a.u.).
Consider “TGAAGGCATGGCCAGGAACCAGGGTCAAAGGAGCAACAAGCGGAGTCACCTAGTGCAG”, for which the binding signal was 3420 fluorescence intensity (a.u.).
Take “CCACCACGCTGCCAGCTTCGCACCCTGTCTCACTGTCGCCCGGAGTCACCTAGTGCAG”: the binding signal is 4020 fluorescence intensity (a.u.).
For the sequence “CTATTTGATTCAACAGGTTTCATGTCATCTAGCTTTCTAACGGAGTCACCTAGTGCAG”, the binding signal was 3670 fluorescence intensity (a.u.).
As for “CCTTCCAACATGTTTATTATGCATGAGATGTGTGCAACGACGGAGTCACCTAGTGCAG”, the binding signal is 3360 fluorescence intensity (a.u.).
The figure for “AGTTCTAATTTTAATACATAAAAGGACATGTCATGGTCGCCGGAGTCACCTAGTGCAG” is 3200 fluorescence intensity (a.u.); for “AGTTTCAGTGGGTGTTAGTGTGTCACCATCCATGGCAAGCCGGAGTCACCTAGTGCAG” it is 7790 fluorescence intensity (a.u.); for “AGTATCTCTTTCACAAAAGCCTACGTCATCTTTAAATTAGCGGAGTCACCTAGTGCAG” it is 5060 fluorescence intensity (a.u.).
Regarding “CTAAACCCTAGCCACTGCCCGGGCGGAGAGTTGGGGTTTGCGGAGTCACCTAGTGCAG”, the binding signal was 27800 fluorescence intensity (a.u.).
The result for “CCAACCTGCGGAGCCGTACACGTGTACCACAGGCCGTGGACGGAGTCACCTAGTGCAG” reads 11100 fluorescence intensity (a.u.); that for “CCTTCCTGTTCCTGCCTACTGTCAGATGAAGTGGTCATCGCGGAGTCACCTAGTGCAG”, 3330 fluorescence intensity (a.u.).
The result for “TTCTCTCTCCAACACCCCAACACGGGGATGACACGTCATACGGAGTCACCTAGTGCAG” reads 18300 fluorescence intensity (a.u.); that for “ACGGAAGAGAGAGAGAAATTAAACTGATGACGTCACCGAGCGGAGTCACCTAGTGCAG”, 19600 fluorescence intensity (a.u.); that for “GCTACAAATAGTCTGCCACAACTCAGTTGCTTTGCCATTGCGGAGTCACCTAGTGCAG”, 3850 fluorescence intensity (a.u.).
Take “TAGGCCGGCGAGTCATCTTCCTTATAATGGATTCCTCAACCGGAGTCACCTAGTGCAG”: the binding signal was 24600 fluorescence intensity (a.u.).
The figure for “GACGGATGGGCCGGATGGAGACCGGTCGATCGAGACGTACCGGAGTCACCTAGTGCAG” is 3270 fluorescence intensity (a.u.); for “GACGCCACACCAACGTGTGCGCCACCGGTGGCTGCCGGCCCGGAGTCACCTAGTGCAG” it is 3930 fluorescence intensity (a.u.); for “GGCCCCACGTTACCCTTTCGCGCACACGTGTCCCCTATCACGGAGTCACCTAGTGCAG” it is 8730 fluorescence intensity (a.u.).
The figure for “TTTGTCGATTTGCGCTGAAAATCGTTTCCCGTCACTGCCACGGAGTCACCTAGTGCAG” is 3970 fluorescence intensity (a.u.).
